# Laboratory results published in PubChem BioAssay AID2551 (National Center for Advancing Translational Sciences (NCATS), 2010).
# Sequences of proteins named here, by UniProt entry; tags and fusion partners are left off. A change or cut given only in a name is not applied to a line headed by its entry.
# UniProt P51450: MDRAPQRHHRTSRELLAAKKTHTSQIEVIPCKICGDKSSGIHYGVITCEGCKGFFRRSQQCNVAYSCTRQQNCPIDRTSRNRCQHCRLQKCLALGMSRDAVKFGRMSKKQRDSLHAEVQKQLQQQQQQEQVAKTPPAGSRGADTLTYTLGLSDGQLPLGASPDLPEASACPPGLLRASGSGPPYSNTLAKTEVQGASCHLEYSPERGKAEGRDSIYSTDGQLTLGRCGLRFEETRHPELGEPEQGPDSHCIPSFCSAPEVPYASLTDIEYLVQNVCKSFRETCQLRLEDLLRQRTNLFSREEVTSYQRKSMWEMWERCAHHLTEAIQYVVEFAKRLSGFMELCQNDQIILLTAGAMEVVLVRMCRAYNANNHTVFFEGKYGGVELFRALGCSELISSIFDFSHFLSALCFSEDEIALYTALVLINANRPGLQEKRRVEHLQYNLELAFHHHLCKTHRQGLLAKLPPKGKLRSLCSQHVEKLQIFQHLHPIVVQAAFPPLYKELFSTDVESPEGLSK
# Hit rate of the full screen: of about 310,000 compounds, about 17,000 (5.5%) were called active. The inconclusive results got no clear call from the source; some entries with a clear call stand among them for comparison. Calls come from the whole dose curve; as a rule, active = well fitted inhibition curve with a large enough effect; inconclusive = small, poorly fitted or top-dose-only effect, or effect the other way; inactive = no such curve, though single readings can be large or run the other way. Potencies beside an inconclusive call are fits to weak or partial responses and may not hold up.
# Target: Nuclear receptor ROR-gamma (Mus musculus) (UniProt P51450)
# Test: qHTS for inhibitors of ROR gamma transcriptional activity; note: nearly all actives have a fitted effect of over 60% in size
# Conditions: Drosophila S2 Gal4-RORgamma UAS-luciferase reporter, 20 h; series mostly up to 53.6 µM
# Summary of the method: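 Read-out: Photinus luciferase luminescence; inhibitors lower reporter signal. Insect Schneider cells with Gal4-ROR gamma fusion under metallothionein promoter, UAS reporter; 700 uM final copper sulfate induction, 20 hr, ambient temperature.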
# Potency is the fitted concentration of half-maximal effect.
row,SMILES,Potency
1,COc1ccc(-c2nn(-c3ccccc3)cc2/C=C2/SC(=S)N(CCCC(=O)O)C2=O)c(C)c1,"inconclusive: 14.1 µM [activator, partial curve]"
2,Cc1cccc(NC(=S)NC(=O)Cc2ccccc2)c1C,active: 3.98 µM
3,CCn1c(COc2c(C)cccc2C)nnc1SCC(=O)N1CCN(c2ccccc2)CC1,inactive
4,Cc1noc(C)c1C(=O)N1CCOCC1,inactive
5,Cc1cc(C[n+]2ccsc2N)c2ncccc2c1,inactive
6,Cc1ccc(N(CC(=O)NCc2ccc3c(c2)OCO3)C(=O)CCC(=O)Nc2ccccn2)cc1,"inconclusive: 6.31 µM [activator, single point]"
7,Cc1ccccc1N1CCN(CCCN2C(=O)CC(=C(c3ccccc3)c3ccccc3)C2=O)CC1,"inconclusive: 11.2 µM [activator, partial curve, poor fit]"
8,COCC(C)n1c(SCc2cc(=O)n3cc(C)ccc3n2)nc2ccccc2c1=O (configuration not stated),"inconclusive: 20 µM [inhibitor, single point]"
9,O=C(NCc1n[nH]c(=S)n1-c1ccc(Cl)c(Cl)c1)c1cccs1,active: 15.8 µM
10,CCn1cc(C=C2C(=O)c3ccccc3C2=O)c2ccccc21,inactive
11,Cc1[nH]n(C(N)=S)c(=O)c1N=Nc1ccc(Br)cc1,active: 0.355 µM
12,Cc1ccc(NC(=S)NNC(=O)CCn2cc(C)cn2)cc1,active: 0.282 µM
13,O=C(O)CC1=C(Nc2ccccc2)C(=O)N(c2ccccc2)C1c1ccc(Cl)cc1 (configuration not stated),"inconclusive: 20 µM [activator, partial curve, poor fit]"
14,CCOc1ccccc1CNC(=O)CCCc1cn(C)c2ccccc12,"inconclusive: 35.5 µM [activator, single point]"
15,O=C(Nc1ccc(-c2nc3ccccc3o2)cc1)c1ccc(N2CCOCC2)c([N+](=O)[O-])c1,"inconclusive: 14.1 µM [inhibitor, single point]"
16,CC(C)Oc1cc(NC(=O)CSCC(=O)Nc2cccc(C(F)(F)F)c2)c(Cl)cc1Cl,"inconclusive: 35.5 µM [inhibitor, single point]"
17,CN(C)CCCN1C(=O)c2cccc3c([N+](=O)[O-])ccc(c23)C1=O,active: 1.41 µM
18,CN(C)C(CNC(=O)c1c(F)cccc1Cl)c1ccco1 (configuration not stated),inactive
19,COC(=O)c1cc2ccsc2n1CC(=O)N1CCCc2ccccc21,"inconclusive: 10 µM [activator, partial curve]"
20,COc1ccc(Oc2ccc(/C=N/NC(=O)c3cccnc3)cc2[N+](=O)[O-])cc1,"inconclusive: 35.5 µM [inhibitor, single point]"
21,CC1CCN(C(=S)NC2CCCCC2)CC1,"inconclusive: 20 µM [inhibitor, partial curve, poor fit]"
22,CCOc1ccc(S(=O)(=O)N2CCc3cc(OC)c(OC)cc3C2)cc1,"inconclusive: 17.8 µM [activator, partial curve]"
23,COc1cc(NC(=O)CN2CCN(Cc3ccc4c(c3)OCO4)CC2)cc(OC)c1,inactive
24,COC(=O)c1sc(N2CCN(Cc3ccccc3)CC2)nc1N,"inconclusive: 31.6 µM [activator, single point]"

# An excerpt of these results, tab-delimited:
row	SMILES	Potency
12	Cc1ccc(NC(=S)NNC(=O)CCn2cc(C)cn2)cc1	active: 0.282 µM
13	O=C(O)CC1=C(Nc2ccccc2)C(=O)N(c2ccccc2)C1c1ccc(Cl)cc1 (configuration not stated)	inconclusive: 20 µM [activator, partial curve, poor fit]
14	CCOc1ccccc1CNC(=O)CCCc1cn(C)c2ccccc12	inconclusive: 35.5 µM [activator, single point]
15	O=C(Nc1ccc(-c2nc3ccccc3o2)cc1)c1ccc(N2CCOCC2)c([N+](=O)[O-])c1	inconclusive: 14.1 µM [inhibitor, single point]
16	CC(C)Oc1cc(NC(=O)CSCC(=O)Nc2cccc(C(F)(F)F)c2)c(Cl)cc1Cl	inconclusive: 35.5 µM [inhibitor, single point]
17	CN(C)CCCN1C(=O)c2cccc3c([N+](=O)[O-])ccc(c23)C1=O	active: 1.41 µM
18	CN(C)C(CNC(=O)c1c(F)cccc1Cl)c1ccco1 (configuration not stated)	inactive
19	COC(=O)c1cc2ccsc2n1CC(=O)N1CCCc2ccccc21	inconclusive: 10 µM [activator, partial curve]
20	COc1ccc(Oc2ccc(/C=N/NC(=O)c3cccnc3)cc2[N+](=O)[O-])cc1	inconclusive: 35.5 µM [inhibitor, single point]
21	CC1CCN(C(=S)NC2CCCCC2)CC1	inconclusive: 20 µM [inhibitor, partial curve, poor fit]
22	CCOc1ccc(S(=O)(=O)N2CCc3cc(OC)c(OC)cc3C2)cc1	inconclusive: 17.8 µM [activator, partial curve]
23	COc1cc(NC(=O)CN2CCN(Cc3ccc4c(c3)OCO4)CC2)cc(OC)c1	inactive

# The listing continues.

row,SMILES,Potency
1,COc1ccc(-n2c(-c3cnccn3)n[nH]c2=S)cc1,"inconclusive: 15.8 µM [inhibitor, single point]"
2,CCOC(=O)Cc1csc(NC(=O)c2ccc(S(=O)(=O)N3CCCCC3)cc2)n1,"inconclusive: 12.6 µM [activator, partial curve]"
3,Cc1c(C2Nc3ccccc3NC3=C2C(=O)CC(C)(C)C3)cnn1C (configuration not stated),"inconclusive: 25.1 µM [inhibitor, single point]"
4,O=C(CCCc1ccccc1)N1CCN(c2ccc([N+](=O)[O-])cc2)CC1,"inconclusive: 35.5 µM [activator, single point]"
5,O=C(Cc1ccccc1)N/N=C/c1ccc2cccc(O)c2n1,active: 7.94 µM
6,Clc1ccc(N/N=C/c2cccs2)nn1,"inconclusive: 35.5 µM [inhibitor, single point]"
7,O=C(O)c1cc(N/N=C/c2ccc(N3CCOCC3)cc2)ccc1Cl,active: 7.08 µM
8,CC1CC(C)CN(c2cc(N(C)CCO)c([N+](=O)[O-])c3nonc23)C1 (configuration not stated),inactive
9,Cc1ccc2nc(N3CCN(C(=O)c4ccc(F)cc4)CC3)c(C#N)cc2c1,"inconclusive: 35.5 µM [activator, single point]"
10,CCCN(CCC)CC(O)Cn1cc(/C=C/C(=O)c2ccccc2)c2ccccc21 (configuration not stated),"inconclusive: 35.5 µM [inhibitor, single point]"
11,CCC(C)NC(=S)Nc1ccc(C(=O)OC)cc1 (configuration not stated),active: 7.08 µM
12,Cc1ccc(C)c(OCc2cc(C(=O)N(C)Cc3nccn3C)no2)c1,inactive
13,Clc1ccc(CSc2ccc(-c3cccnc3)nn2)cc1,"inconclusive: 12.6 µM [activator, partial curve]"
14,Nc1nonc1-n1nnc(C(=O)N/N=C/c2ccoc2)c1CSc1ccc(Cl)cc1,active: 7.08 µM
15,O=c1cc(-c2c(F)c(F)c(F)c(F)c2F)oc2c(F)c(F)c(F)c(F)c12,active: 2.51 µM
16,COc1cccc(OCC(O)CNC(=O)c2oc3ccc(C)cc3c2C)c1 (configuration not stated),"inconclusive: 35.5 µM [activator, single point]"
17,O=C(Nc1ccccc1)[C@@H]1[C@@H]2C(=O)N(c3ccc(F)cc3)C(=O)[C@@H]2[C@H]2C=CC=NN21,"inconclusive: 20 µM [inhibitor, single point]"
18,CCN(CC)S(=O)(=O)c1ccc(OC)c(NC(=S)Nc2ccc(C)c(C)c2)c1,"inconclusive: 0.316 µM [inhibitor, full curve]"
19,O=C(CCC1CCCCC1)N1CCN(Cc2ccc3c(c2)OCO3)CC1,"inconclusive: 35.5 µM [activator, single point]"
20,Cc1ccccc1NC(=S)N(CCN1CCCCCC1)Cc1cccs1,active: 10 µM
21,CSc1oc(-c2ccc(F)cc2)nc1S(=O)(=O)c1ccc(F)cc1,inactive
22,COc1cc2c(cc1OC)C(C)N(C(C)=O)CC2 (configuration not stated),"inconclusive: 0.355 µM [inhibitor, full curve, poor fit]"
23,COCCN(C(=O)CSc1nnc(C)n1Cc1ccccc1)c1c(N)n(CC(C)C)c(=O)[nH]c1=O,"inconclusive: 0.447 µM [inhibitor, single point]"
24,O=C(Nc1ccccn1)C1CCCN(c2ncnc3c2nc2n3CCCCC2)C1 (configuration not stated),inactive

row,SMILES,Potency
1,COc1ccc(-c2cc(-c3nnc(COC(=O)c4ccncc4)o3)c3ccccc3n2)cc1OC,inactive
2,CN1CCN(C(=O)c2sc(=S)n(-c3ccccc3)c2N)CC1,"inconclusive: 11.2 µM [inhibitor, partial curve]"
3,CCN(CC)C(=O)CSc1nnc2nnc3cc(OC)ccc3n12,"inconclusive: 25.1 µM [inhibitor, single point]"
4,CCOC(=O)C1CCN(C(=O)c2cc3cc(C)ccc3[nH]2)CC1,"inconclusive: 35.5 µM [activator, single point]"
5,COC(=O)Cc1ccc(NC(=O)c2ccc3c(c2)C(=O)N(CC2CCCO2)C3=O)cc1 (configuration not stated),"inconclusive: 4.47 µM [activator, full curve]"
6,CC(=O)Nc1ccc(NC(=O)[C@H](C)NC(=O)c2ccco2)cc1,inactive
7,Cc1c(NCc2cc(Cl)cc(Cl)c2O)c(=O)n(-c2ccccc2)n1C,"inconclusive: 35.5 µM [inhibitor, single point]"
8,Cc1ccc(S(=O)(=O)NCCC(c2ccc(F)cc2)c2ccco2)cc1 (configuration not stated),"inconclusive: 31.6 µM [activator, single point]"
9,Cn1c(SCC(=O)NCCN2C(=O)CSC2=O)nc2ccccc2c1=O,"inconclusive: 0.112 µM [inhibitor, full curve, poor fit]"
10,COC(=O)c1ccccc1S(=O)(=O)N1CCn2cccc2C1C (configuration not stated),inactive
11,COc1cccc(CC(NC(C)=O)C(=O)NC2CCN(c3c(Cc4ccccc4)c(C)nc4ncnn34)CC2)c1 (configuration not stated),"inconclusive: 31.6 µM [activator, single point]"
12,COc1cc2c(cc1NC(=O)Cc1ccc(C)cc1)oc1ccccc12,"inconclusive: 7.08 µM [activator, partial curve]"
13,CCC1CCCCN1C(=S)NC(=O)c1ccc([N+](=O)[O-])cc1 (configuration not stated),active: 0.251 µM
14,CC(=O)NC(c1ccc(Cl)cc1Cl)c1ccc2cccnc2c1O (configuration not stated),active: 2 µM
15,S=c1nc(C2COc3ccccc3O2)[nH][nH]1 (configuration not stated),active: 12.6 µM
16,O=C(CCCn1c(=S)[nH]c2cc3c(cc2c1=O)OCO3)N1CCN(c2ccc(Cl)cc2)CC1,active: 6.31 µM
17,C[n+]1nc(Nc2ccccc2)sc1-c1ccc(C(=O)O)cc1,inactive
18,COc1ccccc1NC(=O)Cn1nnc(-c2ccccc2NS(=O)(=O)c2ccccc2)n1,inactive
19,O=C(O)c1cccc(N2C(=O)C3C4C=CC(C4=C(c4ccccc4)c4ccccc4)C3C2=O)c1 (configuration not stated),"inconclusive: 35.5 µM [activator, single point]"
20,Nc1nc(SCC(=O)Nc2ccc(OC(F)(F)F)cc2)[nH]c(=O)c1NC(=O)c1ccc(Br)o1,"inconclusive: 11.2 µM [inhibitor, single point]"
21,O=C(Nc1ccc2c3c(cccc13)CC2)c1ccc(Br)o1,"inconclusive: 5.62 µM [inhibitor, single point]"
22,Cc1cccc(NC(=O)C[n+]2ccc(N(C)C)cc2)c1,inactive
23,O=C(Cc1cccs1)Nc1cccc(-c2nc3cc4ccccc4cc3[nH]2)c1,inactive
24,CCNc1nc(CN2CCCCC2)nc2scc(-c3ccccc3)c12,active: 15.8 µM
